# Results published in the supplement of paper PMC12819154, “High-throughput peptide-centric local stability assay extends protein–ligand identification to membrane proteins, tissues and bacteria” (Nature Structural & Molecular Biology, 2025).
# Amino acid sequences for entries named in this document (tags omitted). A change or cut given only in a name is not applied to a line headed by its entry.
# UniProt P09105: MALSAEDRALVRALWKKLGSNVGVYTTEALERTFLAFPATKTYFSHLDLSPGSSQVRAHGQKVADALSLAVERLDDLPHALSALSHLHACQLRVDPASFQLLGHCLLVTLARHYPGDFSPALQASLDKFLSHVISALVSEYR
# UniProt P09382, whole entry: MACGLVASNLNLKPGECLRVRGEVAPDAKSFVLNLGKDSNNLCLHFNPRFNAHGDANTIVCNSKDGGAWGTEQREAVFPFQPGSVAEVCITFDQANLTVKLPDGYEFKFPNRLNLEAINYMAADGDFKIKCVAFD
# UniProt P00352: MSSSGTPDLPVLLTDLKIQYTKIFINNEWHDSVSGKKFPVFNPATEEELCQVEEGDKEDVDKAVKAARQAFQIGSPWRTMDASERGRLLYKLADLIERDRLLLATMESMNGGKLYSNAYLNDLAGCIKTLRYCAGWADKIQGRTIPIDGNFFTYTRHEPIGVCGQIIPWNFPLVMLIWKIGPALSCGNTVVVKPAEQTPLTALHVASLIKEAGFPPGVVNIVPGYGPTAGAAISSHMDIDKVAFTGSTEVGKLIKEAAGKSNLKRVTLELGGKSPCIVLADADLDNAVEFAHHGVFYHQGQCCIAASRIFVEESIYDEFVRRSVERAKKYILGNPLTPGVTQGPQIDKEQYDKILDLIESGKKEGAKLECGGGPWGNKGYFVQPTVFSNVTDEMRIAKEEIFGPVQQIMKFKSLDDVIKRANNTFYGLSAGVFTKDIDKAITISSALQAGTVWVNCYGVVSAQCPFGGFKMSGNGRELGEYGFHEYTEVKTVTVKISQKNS
# UniProt P0CW24: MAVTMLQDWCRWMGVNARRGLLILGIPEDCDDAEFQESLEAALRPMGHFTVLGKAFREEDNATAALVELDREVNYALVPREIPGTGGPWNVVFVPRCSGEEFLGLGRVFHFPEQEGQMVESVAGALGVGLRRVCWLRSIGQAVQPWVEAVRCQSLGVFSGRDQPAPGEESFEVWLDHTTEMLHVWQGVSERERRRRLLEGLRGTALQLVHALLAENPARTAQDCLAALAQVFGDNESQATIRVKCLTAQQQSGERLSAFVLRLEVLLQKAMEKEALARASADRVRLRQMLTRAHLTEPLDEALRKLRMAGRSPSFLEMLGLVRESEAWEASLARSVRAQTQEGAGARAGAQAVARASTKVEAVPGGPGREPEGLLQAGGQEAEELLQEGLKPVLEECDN
# UniProt P10746: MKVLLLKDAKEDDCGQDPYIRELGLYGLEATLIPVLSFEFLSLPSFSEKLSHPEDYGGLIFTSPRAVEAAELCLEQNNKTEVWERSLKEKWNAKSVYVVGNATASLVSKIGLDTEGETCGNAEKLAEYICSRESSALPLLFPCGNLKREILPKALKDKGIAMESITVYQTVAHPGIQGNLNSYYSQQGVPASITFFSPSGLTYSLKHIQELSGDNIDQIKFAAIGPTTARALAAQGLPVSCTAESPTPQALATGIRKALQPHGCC
# UniProt P07384: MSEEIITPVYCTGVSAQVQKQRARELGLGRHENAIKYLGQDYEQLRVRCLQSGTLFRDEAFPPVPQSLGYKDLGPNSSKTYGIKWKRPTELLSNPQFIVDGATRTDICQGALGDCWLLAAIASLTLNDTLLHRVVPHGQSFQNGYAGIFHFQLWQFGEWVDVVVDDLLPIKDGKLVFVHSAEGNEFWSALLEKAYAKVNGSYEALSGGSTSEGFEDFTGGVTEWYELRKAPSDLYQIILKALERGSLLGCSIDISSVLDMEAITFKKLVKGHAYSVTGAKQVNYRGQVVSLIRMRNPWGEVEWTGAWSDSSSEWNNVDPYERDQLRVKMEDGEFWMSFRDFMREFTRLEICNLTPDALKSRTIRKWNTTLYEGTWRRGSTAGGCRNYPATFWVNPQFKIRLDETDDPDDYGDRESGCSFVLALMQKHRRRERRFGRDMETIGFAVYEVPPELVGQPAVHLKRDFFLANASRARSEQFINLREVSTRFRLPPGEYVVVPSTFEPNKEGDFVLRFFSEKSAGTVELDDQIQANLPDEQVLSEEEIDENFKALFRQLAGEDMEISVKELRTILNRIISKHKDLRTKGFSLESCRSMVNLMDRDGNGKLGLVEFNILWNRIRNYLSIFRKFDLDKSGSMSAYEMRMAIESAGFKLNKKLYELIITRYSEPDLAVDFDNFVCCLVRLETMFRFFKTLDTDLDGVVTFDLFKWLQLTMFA
# UniProt P05091: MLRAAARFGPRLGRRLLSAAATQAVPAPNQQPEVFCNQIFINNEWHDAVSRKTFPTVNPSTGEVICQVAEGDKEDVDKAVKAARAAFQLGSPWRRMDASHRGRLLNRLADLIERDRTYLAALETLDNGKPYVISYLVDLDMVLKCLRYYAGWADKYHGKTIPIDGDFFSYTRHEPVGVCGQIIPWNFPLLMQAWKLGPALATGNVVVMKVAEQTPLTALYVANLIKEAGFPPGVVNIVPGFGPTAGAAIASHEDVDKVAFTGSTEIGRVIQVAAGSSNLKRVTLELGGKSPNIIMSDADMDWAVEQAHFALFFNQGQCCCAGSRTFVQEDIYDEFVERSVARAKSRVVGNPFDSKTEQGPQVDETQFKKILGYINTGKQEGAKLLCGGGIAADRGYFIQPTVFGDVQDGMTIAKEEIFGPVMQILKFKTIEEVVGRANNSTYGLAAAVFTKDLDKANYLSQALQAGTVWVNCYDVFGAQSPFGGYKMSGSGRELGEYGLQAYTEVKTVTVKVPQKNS
# UniProt P09234, whole entry: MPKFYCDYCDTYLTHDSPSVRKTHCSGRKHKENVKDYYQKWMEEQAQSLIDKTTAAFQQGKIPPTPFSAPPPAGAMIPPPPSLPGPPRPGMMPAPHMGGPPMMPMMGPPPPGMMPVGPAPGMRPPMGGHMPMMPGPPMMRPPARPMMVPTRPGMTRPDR
# UniProt P07311: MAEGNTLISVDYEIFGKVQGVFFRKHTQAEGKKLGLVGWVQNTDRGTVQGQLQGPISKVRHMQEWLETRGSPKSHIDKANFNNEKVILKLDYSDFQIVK
# UniProt P09543: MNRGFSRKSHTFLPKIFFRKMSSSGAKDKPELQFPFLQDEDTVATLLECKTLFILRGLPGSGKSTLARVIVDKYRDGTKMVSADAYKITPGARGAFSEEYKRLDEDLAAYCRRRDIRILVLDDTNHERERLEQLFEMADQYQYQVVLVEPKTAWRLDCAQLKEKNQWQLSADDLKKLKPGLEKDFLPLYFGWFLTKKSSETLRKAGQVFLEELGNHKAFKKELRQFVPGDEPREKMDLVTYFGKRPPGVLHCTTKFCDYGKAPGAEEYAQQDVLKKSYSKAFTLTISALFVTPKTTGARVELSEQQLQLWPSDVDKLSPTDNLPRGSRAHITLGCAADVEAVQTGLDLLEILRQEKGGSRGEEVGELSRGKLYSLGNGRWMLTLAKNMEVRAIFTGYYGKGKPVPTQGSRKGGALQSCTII
# UniProt P05937: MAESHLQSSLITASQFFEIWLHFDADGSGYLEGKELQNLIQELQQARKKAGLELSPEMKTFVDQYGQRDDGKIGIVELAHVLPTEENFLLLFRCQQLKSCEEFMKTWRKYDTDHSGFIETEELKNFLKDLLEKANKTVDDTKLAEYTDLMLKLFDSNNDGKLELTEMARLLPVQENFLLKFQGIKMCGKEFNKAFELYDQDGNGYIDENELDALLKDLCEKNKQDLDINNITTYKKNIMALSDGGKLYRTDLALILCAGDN
# UniProt P02724: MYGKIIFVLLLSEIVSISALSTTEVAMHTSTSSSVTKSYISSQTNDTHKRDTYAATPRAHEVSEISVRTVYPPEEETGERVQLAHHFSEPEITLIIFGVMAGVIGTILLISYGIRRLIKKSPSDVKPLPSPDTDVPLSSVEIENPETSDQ
# UniProt P10412, whole entry: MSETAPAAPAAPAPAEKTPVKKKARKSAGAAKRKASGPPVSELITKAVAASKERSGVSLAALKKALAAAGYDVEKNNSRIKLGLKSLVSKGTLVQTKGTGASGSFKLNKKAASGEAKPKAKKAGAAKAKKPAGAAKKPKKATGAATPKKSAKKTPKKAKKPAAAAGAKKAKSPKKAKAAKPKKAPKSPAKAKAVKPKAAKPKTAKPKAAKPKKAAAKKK
# UniProt P09884: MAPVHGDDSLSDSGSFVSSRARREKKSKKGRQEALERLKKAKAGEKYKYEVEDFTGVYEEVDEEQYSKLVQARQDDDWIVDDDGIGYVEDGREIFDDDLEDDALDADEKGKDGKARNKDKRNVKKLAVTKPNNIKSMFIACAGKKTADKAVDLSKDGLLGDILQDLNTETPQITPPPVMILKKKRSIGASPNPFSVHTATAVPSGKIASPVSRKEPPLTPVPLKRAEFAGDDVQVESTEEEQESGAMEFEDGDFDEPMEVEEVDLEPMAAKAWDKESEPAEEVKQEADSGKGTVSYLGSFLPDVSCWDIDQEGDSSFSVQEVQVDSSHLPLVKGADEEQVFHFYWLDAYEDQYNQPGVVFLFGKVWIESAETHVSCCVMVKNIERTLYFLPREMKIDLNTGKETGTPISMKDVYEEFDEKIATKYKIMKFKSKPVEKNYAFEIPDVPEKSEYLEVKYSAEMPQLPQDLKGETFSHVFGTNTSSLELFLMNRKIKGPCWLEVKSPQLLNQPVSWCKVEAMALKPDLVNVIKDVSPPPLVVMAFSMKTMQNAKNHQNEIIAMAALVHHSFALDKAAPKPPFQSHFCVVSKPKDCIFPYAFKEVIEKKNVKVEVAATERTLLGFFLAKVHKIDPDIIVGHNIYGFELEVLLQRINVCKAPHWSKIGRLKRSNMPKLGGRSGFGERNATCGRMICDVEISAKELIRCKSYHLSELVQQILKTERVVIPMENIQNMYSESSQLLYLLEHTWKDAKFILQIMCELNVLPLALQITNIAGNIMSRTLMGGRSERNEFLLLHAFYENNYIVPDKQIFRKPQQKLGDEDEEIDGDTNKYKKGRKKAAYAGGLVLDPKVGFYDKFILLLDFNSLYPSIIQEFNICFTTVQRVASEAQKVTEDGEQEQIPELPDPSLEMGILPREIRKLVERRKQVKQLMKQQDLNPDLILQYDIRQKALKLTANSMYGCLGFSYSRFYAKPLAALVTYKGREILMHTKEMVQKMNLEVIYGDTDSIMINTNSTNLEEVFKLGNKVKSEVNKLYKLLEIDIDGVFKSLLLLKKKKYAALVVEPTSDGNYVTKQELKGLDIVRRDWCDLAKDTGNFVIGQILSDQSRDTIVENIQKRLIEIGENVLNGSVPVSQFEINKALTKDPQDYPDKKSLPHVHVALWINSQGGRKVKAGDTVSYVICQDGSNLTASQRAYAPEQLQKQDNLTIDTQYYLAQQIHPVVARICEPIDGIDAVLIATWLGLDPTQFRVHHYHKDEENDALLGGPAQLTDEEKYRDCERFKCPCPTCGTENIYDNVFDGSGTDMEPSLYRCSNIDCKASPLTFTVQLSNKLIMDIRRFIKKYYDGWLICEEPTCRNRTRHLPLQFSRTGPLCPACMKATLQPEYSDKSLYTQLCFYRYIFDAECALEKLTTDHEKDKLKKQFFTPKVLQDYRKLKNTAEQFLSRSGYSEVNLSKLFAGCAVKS
# UniProt P08243: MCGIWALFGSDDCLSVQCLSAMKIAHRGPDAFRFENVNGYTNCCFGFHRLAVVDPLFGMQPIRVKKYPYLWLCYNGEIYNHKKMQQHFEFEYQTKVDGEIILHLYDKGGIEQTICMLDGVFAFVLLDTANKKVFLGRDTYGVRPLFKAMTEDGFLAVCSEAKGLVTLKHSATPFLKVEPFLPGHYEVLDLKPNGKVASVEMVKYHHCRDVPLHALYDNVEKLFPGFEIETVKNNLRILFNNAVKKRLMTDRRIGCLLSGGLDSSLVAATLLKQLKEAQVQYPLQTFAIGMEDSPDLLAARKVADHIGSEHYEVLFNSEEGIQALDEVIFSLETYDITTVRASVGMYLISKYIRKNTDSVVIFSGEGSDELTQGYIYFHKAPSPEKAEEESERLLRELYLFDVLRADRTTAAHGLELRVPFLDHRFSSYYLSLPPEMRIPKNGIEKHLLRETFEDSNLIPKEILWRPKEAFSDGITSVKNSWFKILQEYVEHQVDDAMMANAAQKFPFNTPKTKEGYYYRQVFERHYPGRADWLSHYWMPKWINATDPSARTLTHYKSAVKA
# UniProt P07948: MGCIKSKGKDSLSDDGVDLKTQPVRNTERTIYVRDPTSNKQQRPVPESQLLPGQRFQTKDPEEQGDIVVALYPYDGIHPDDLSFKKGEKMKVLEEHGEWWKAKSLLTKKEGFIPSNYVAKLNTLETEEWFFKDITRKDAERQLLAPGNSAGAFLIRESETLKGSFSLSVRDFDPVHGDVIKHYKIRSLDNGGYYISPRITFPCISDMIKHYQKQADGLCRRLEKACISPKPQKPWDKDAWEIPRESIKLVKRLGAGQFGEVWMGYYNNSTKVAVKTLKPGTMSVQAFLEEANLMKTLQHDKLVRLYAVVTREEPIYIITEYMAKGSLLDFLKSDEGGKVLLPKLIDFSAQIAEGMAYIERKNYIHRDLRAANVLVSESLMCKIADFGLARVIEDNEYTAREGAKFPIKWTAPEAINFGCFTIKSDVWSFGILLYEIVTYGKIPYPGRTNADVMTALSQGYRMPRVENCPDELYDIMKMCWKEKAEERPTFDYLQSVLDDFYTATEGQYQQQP
# The list shows a part of the results. Most entries show no effect beyond the scatter of the controls.
# Compound: CN[C@@H]1C[C@H]2O[C@@](C)([C@@H]1OC)n1c3ccccc3c3c4c(c5c6ccccc6n2c5c31)C(=O)NC4 [staurosporine]
# Experiment: log2 fold change of tryptic peptide abundance, ligand vs vehicle (limited proteolysis) (log2 ratio); higher = more trypsin-susceptible (destabilized)
# Details: ligand concentration: 20 uM; sample: K562 cleared lysate; digestion: 4 min, 22 C (HT-PELSA RT4min, Orbitrap Astral)
row,Target,log2 fold change
1,"GBA (peptide sequence: LLLPHWAK, peptide start residue: 325) (UniProt P04062)",0.292
2,"HBQ1 (peptide sequence: TFLAFPATK, peptide start residue: 33) (UniProt P09105)",0.267
3,"ACP2 (peptide sequence: HVADGEDHA, peptide start residue: 415) (UniProt P11117)",-0.0503
4,"LGALS1 (peptide sequence: SFVLNLGKDSNNLCLHFNPR, peptide start residue: 30) (UniProt P09382)",-0.169
5,"ALDH1A1 (peptide sequence: LECGGGPWGNK, peptide start residue: 368) (UniProt P00352)",-0.171
6,"PFN1 (peptide sequence: EGVHGGLINKK, peptide start residue: 117) (UniProt P07737)",0.47
7,"UniProt P0CW24 (peptide sequence: CLTAQQQSGER, peptide start residue: 245)",0.295
8,"POLR2M (peptide sequence: AKNPVPQLR, peptide start residue: 239) (UniProt P0CAP2)",0.324
9,"DLAT (peptide sequence: VVDGAVGAQWLAEFRK, peptide start residue: 622) (UniProt P10515)",0.379
10,"UniProt P09086 (peptide sequence: IKLGFTQGDVGLAMGK, peptide start residue: 300)",0.0968
11,"SLC25A5 (peptide sequence: DFLAGGVAAAISK, peptide start residue: 11) (UniProt P05141)",-0.189
12,"UROS (peptide sequence: FAAIGPTTAR, peptide start residue: 221) (UniProt P10746)",0.0235
13,"TYMS (peptide sequence: DFLDSLGFSTR, peptide start residue: 116) (UniProt P04818)",-0.131
14,"NFIC (peptide sequence: EDFVLSITGK, peptide start residue: 90) (UniProt P08651)",-0.214
15,"CAPN1 (peptide sequence: ESGCSFVLALMQK, peptide start residue: 414) (UniProt P07384)",0.594
16,"PARP1 (peptide sequence: VCSTNDLKELLIFNK, peptide start residue: 255) (UniProt P09874)",0.392
17,"ALDH2 (peptide sequence: TFVQEDIYDEFVER, peptide start residue: 325) (UniProt P05091)",0.586
18,"HSP90AB1 (peptide sequence: ALLFIPRRAPFDLFENK, peptide start residue: 331) (UniProt P08238)",1.14
19,"UniProt P0CB38 (peptide sequence: NLDDTIDDEK, peptide start residue: 300)",0.0447
20,"TPM2 (peptide sequence: LEEAEKAADESER, peptide start residue: 77) (UniProt P07951)",-0.0836

# Laid out differently: results already given
row	Target	log2 fold change
2	HBQ1 (peptide sequence: TFLAFPATK, peptide start residue: 33) (UniProt P09105)	0.267
18	HSP90AB1 (peptide sequence: ALLFIPRRAPFDLFENK, peptide start residue: 331) (UniProt P08238)	1.14
19	UniProt P0CB38 (peptide sequence: NLDDTIDDEK, peptide start residue: 300)	0.0447

# Further results:

row,Target,log2 fold change
1,"SNRPC (peptide sequence: TTAAFQQGK, peptide start residue: 53) (UniProt P09234)",-0.155
2,"ACYP1 (peptide sequence: VILKLDYSDFQIVK, peptide start residue: 86) (UniProt P07311)",0.556
3,"CNP (peptide sequence: GAFSEEYKR, peptide start residue: 94) (UniProt P09543)",0.448
4,"ALDOC (peptide sequence: ELSDIALR, peptide start residue: 15) (UniProt P09972)",0.368
5,"CALB1 (peptide sequence: TFVDQYGQRDDGK, peptide start residue: 60) (UniProt P05937)",0.527
6,"GYPA (peptide sequence: SYISSQTNDTHKR, peptide start residue: 38) (UniProt P02724)",-0.168
7,"GSN (peptide sequence: TPSAAYLWVGTGASEAEK, peptide start residue: 598) (UniProt P06396)",-0.499
8,"HIST1H1E (peptide sequence: KPAAAAGAKK, peptide start residue: 160) (UniProt P10412)",0.986
9,"ASS1 (peptide sequence: MPEFYNR, peptide start residue: 147) (UniProt P00966)",0.231
10,"DBI (peptide sequence: TKPSDEEMLFIYGHYK, peptide start residue: 18) (UniProt P07108)",0.0038
11,"SPTA1 (peptide sequence: ADVVEAWIADKETSLK, peptide start residue: 1937) (UniProt P02549)",0.218
12,"UniProt P10155 (peptide sequence: IPTHLFTFIQFK, peptide start residue: 121)",0.559
13,"UniProt P03971 (peptide sequence: MTPALLLLPR, peptide start residue: 245)",-0.343
14,"POLA1 (peptide sequence: LAVTKPNNIK, peptide start residue: 126) (UniProt P09884)",0.266
15,"ASNS (peptide sequence: VASVEMVKYHHCR, peptide start residue: 196) (UniProt P08243)",1.5
16,"LYN (peptide sequence: EGFIPSNYVAK, peptide start residue: 110) (UniProt P07948)",-0.299
17,"UniProt P00403 (peptide sequence: VVLPIEAPIR, peptide start residue: 142)",0.105
18,"RPLP0 (peptide sequence: GKAVVLMGK, peptide start residue: 49) (UniProt P05388)",0.235
19,"CISD3 (peptide sequence: ATQRPPYCDGTHR, peptide start residue: 102) (UniProt P0C7P0)",1.13
20,"EIF4E (peptide sequence: WALWFFKNDKSK, peptide start residue: 43) (UniProt P06730)",0.354
